Assay results published in PubChem BioAssay AID2551 (National Center for Advancing Translational Sciences (NCATS), 2010).
Out of some 310,000 compounds screened, about 17,000 (5.5%) were called active. Inconclusive results, whose numbers are uncertain, are shown with a selection of clear calls. Calls follow the shape of the dose curve; as a rule, active = well fitted inhibition curve with a large enough effect; inconclusive = small, poorly fitted or top-dose-only effect, or effect the other way; inactive = no such curve, though single readings can be large or run the other way. Potencies beside an inconclusive call are fits to weak or partial responses and may not hold up.

Chains of the proteins cited; added tags and fusions are not shown. Lines headed by an entry give the natural chain unless they say otherwise; changes in a name come on top.
UniProt P51450: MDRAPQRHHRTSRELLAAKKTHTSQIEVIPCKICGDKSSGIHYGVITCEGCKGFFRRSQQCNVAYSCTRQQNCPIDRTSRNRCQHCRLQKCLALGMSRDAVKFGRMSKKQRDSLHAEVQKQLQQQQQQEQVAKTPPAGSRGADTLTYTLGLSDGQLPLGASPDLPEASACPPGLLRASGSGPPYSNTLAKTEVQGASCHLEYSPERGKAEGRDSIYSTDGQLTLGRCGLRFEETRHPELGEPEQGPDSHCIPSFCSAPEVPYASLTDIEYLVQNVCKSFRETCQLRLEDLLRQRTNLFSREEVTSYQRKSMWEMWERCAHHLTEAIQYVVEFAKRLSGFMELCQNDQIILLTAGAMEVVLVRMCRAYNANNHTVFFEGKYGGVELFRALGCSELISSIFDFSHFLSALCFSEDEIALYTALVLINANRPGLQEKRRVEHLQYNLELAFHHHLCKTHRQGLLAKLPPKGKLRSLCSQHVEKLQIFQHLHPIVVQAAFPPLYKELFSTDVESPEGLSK

target: Nuclear receptor ROR-gamma (Mus musculus) (UniProt P51450); assay: qHTS for inhibitors of ROR gamma transcriptional activity; details: Drosophila S2 Gal4-RORgamma UAS-luciferase reporter, 20 h; activity change, negative = inhibition: at 53.6 µM (top of the series); also: nearly all actives have a fitted effect of over 60% in size
Outline: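 Read-out: Photinus luciferase luminescence; inhibitors lower reporter signal. Insect Schneider cells with Gal4-ROR gamma fusion under metallothionein promoter, UAS reporter; 700 uM final copper sulfate induction, 20 hr, ambient temperature.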
% is scaled to controls: 0 for no effect and ±100 for the full control effect; potency is read from the fitted curve at half-maximal effect.

Structure (SMILES) | activity change, negative = inhibition | Potency
O=S(=O)(c1cccc2nonc12)N1CCCCC1 | inactive: 7.27% | –
Cc1cc(C)c(S(=O)(=O)N2CCN(C(=O)CCn3nc(C)c(C)c3C)CC2)c(C)c1 | inactive: -15.9% | –
Nc1n[nH]c2cccc(Cl)c12 | – | inconclusive: 35.5 µM [inhibitor, single point]
N#Cc1cccc(-c2ccc3ncnc(NCc4cccnc4)c3c2)c1 | inactive: -38.6% | –
COc1ccc(CCCc2n[nH]c(=S)o2)cc1C | – | active: 10 µM
CCCCN1CNC(=S)N(Cc2ccccc2)C1 | – | active: 3.98 µM
CC1CC(C)CN(c2nc(NCc3ccco3)nc(N)c2[N+](=O)[O-])C1 (stereo not given) | inactive: 15.5% | –
COc1ccccc1-n1cnc2cc(C(=O)NC3CCCC3)ccc21 | – | inconclusive: 1.41 µM [activator, full curve]
Cc1cc(C(=O)NC2CCCc3c2cnn3-c2cccc(C)c2C)no1 (stereo not given) | – | inconclusive: 12.6 µM [activator, partial curve]
Cc1cc(C)c(C(=O)CC(=O)c2ccccc2Cl)c(O)c1 | – | active: 2.24 µM
N#Cc1ccc2c(c1)C[C@]1(CCCCN3C(=O)c4ccccc4C3=O)Oc3c(c(=O)oc4ccccc34)C2O1 | inactive: -21.3% [at 10 µM] | –
Cc1ccc(C2CC(c3ccco3)n3nc(N)nc3N2)cc1 (stereo not given) | inactive: -5.45% | –
CC(C)CC1NC(=S)N(C2CCCCC2)C1=O (stereo not given) | – | inconclusive: 20 µM [inhibitor, partial curve, poor fit]
COc1cnc(-c2ccccn2)nc1Sc1ccc(Cl)cc1 | – | active: 5.62 µM
O=C(CCN1C(=O)/C(=C\c2ccccc2)SC1=S)NCCCN1CCOCC1 | – | inconclusive: 6.31 µM [inhibitor, single point]
CCN(C(=O)CN1C(=O)/C(=C/c2ccccc2F)SC1=S)C1CCS(=O)(=O)C1 (stereo not given) | – | active: 10 µM
Cc1ccc(CNC(=S)NC2CCCCC2)cc1 | – | active: 3.98 µM
COc1ccccc1CSc1nc2c(c(=O)n(C)c(=O)n2C)n1C | inactive: 1.11% | –
COc1ccc(Br)cc1/C=N/n1c(C)nnc1C | – | inconclusive: 10 µM [inhibitor, partial curve, poor fit]
OCc1ccccc1OCCOc1ccc(Cl)c2cccnc12 | – | inconclusive: 10 µM [activator, partial curve]
CN(C1CCCCC1)S(=O)(=O)c1ccc(C(=O)N2CCN(c3nc4ccccc4s3)CC2)cc1 | – | inconclusive: 5.01 µM [activator, full curve, poor fit]
COc1ccc2[nH]c(C)c(CCNC(=S)Nc3cccc(C)c3C)c2c1 | – | active: 7.08 µM
OC(CNCc1ccccc1Cl)C(F)(F)F (stereo not given) | inactive: 3.89% | –
N#C/C(=C\c1cccnc1)C(=O)Nc1ccc(Cl)cc1 | inactive: -25.2% | –
C/C(=N/Oc1nc(C)cc(C)n1)c1ccc(Br)cc1 | – | inconclusive: 20 µM [inhibitor, single point]
COc1ccc(C)cc1NC(=O)NC1CCCCCCC1 | inactive: 4.87% | –
CC(=O)Nc1nc(CC(C)C)cc(-c2ccco2)c1C#N | inactive: 22.4% | –
COc1cc2c(cc1OC)CN(C(=O)CCN1C(=O)C3CCCCC3C1=O)CC2 (stereo not given) | inactive: -12.2% | –

3 entries already listed, ordered by number of heavy atoms, descending.
Structure (SMILES) | activity change, negative = inhibition | Potency
CC(=O)Nc1nc(CC(C)C)cc(-c2ccco2)c1C#N | inactive: 22.4% | –
O=S(=O)(c1cccc2nonc12)N1CCCCC1 | inactive: 7.27% | –
CC(C)CC1NC(=S)N(C2CCCCC2)C1=O (stereo not given) | – | inconclusive: 20 µM [inhibitor, partial curve, poor fit]

Next part:

Structure (SMILES) | activity change, negative = inhibition | Potency
CCOc1ccc(CN2CCN(CCCc3ccccc3)C(CCO)C2)cc1 (stereo not given) | inactive: 2.1% | –
CNC(=S)NNC(=O)CCn1nc(C)c(Br)c1C | – | active: 0.631 µM
C[C@H](NC(=O)c1nc[nH]c1C(=O)NC1CCN(C(=O)OC(C)(C)C)CC1)C(=O)OCc1ccccc1 | – | active: 14.1 µM
Cc1ccc2c(c1)N=C(c1ccc(Cl)cc1)CO2 | – | inconclusive: 2.24 µM [activator, partial curve]
COc1ccc(NC(=O)c2sc3nc(C)cc(C)c3c2N)cc1 | inactive: -0.413% | –
Brc1cccc(-c2cnc3n2CCCCC3)c1 | – | active: 0.398 µM
Fc1ccccc1NC(=S)NCc1ccccc1 | – | inconclusive: 8.91 µM [inhibitor, partial curve, poor fit]
Clc1ccc(CSc2nc3ccncc3[nH]2)cc1 | – | inconclusive: 3.98 µM [inhibitor, single point]
COc1cccc(CNc2ccc3c(c2)nc(C)n3C)c1OC | – | inconclusive: 35.5 µM [activator, single point]
COC(=O)c1cn(C(=O)c2cc(Br)ccc2Cl)c2ccccc12 | inactive: 11% | –
Cc1noc(C)c1C(=O)NCc1ccccc1F | inactive: -2.86% | –
Cc1noc(C)c1CSc1nnc(C)c(=O)[nH]1 | – | inconclusive: 35.5 µM [inhibitor, single point]
CC(=O)Nc1ccc(N(CC(=O)NC2CCCCC2)C(=O)Cn2nnc(-c3ccccc3)n2)cc1 | inactive: 17.9% | –
CCOC(=O)c1sc(N2N=C(C)/C(=C\c3ccc(OCC(=O)OC)cc3)C2=O)nc1C | – | active: 8.91 µM
O=C(NC(=S)Nc1cccc2[nH]ncc12)c1ccccc1 | inactive: -8.64% | –
CSc1cccc(NC(=O)CN(c2ccccc2)S(=O)(=O)N(C)C)c1 | inactive: -5.1% | –
O=C1CN(C(=O)Cn2ncc(Cl)c(Cl)c2=O)c2ccccc2N1 | – | active: 11.2 µM
CCOC(=O)[C@@H]1[C@H]2COc3ccccc3[C@@H]2N2C(=O)N(c3ccc(C)cc3)C(=O)[C@]12C | inactive: 3.87% | –
O=C1c2ccccc2-n2c1nc1ccccc1c2=O | – | inconclusive: 11.2 µM [inhibitor, partial curve, poor fit]
Cc1ccc(-c2n[nH]c(=S)n2/N=C/C=C/c2ccccc2[N+](=O)[O-])cc1 | – | active: 4.47 µM
O=c1cc(-c2ccccc2)oc2cc(OCc3ccccc3)cc(O)c12 | inactive: -1.72% | –
O=C(NCc1cccc(C(F)(F)F)c1)C1CC(c2c(Cl)cccc2Cl)=NO1 (stereo not given) | – | inconclusive: 14.1 µM [activator, partial curve]
COc1ccc(-c2nnn(CC(=O)c3ccccc3)n2)cc1OC | – | inconclusive: 8.91 µM [activator, partial curve, poor fit]
Cc1ccc(/C=N/NC(=O)c2ccc3c(c2)OCCO3)s1 | – | active: 5.62 µM
CC(=O)C(Sc1nnnn1-c1ccc(O)cc1)c1ccccc1 (stereo not given) | inactive: 28.4% | –
Cc1c(NC(=S)SCc2ccccc2)c(=O)n(-c2ccccc2)n1C | – | inconclusive: 20 µM [inhibitor, single point]
Cc1cc(=O)c2cc(Br)ccc2n1CC(=O)NCc1ccccc1 | – | inconclusive: 17.8 µM [activator, single point]
